# PubChem BioAssay AID445 (National Center for Advancing Translational Sciences (NCATS), 2006)
# The other results are listed elsewhere or left out. Further columns of the screen follow, without active or inactive calls. Most of these compounds were active or inconclusive in the main read-out, so they are no random draw. Potencies come from curve fits of mixed quality, noted in brackets.
# Assay: IkB Signaling
# Details: ABC-DLBCL IkBa-CBG/CBR dual luciferase ratio (green luciferase fused to IkBa over red control in OCI-Ly3 lymphoma cells), 4 h
# Outline: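 Luminescence ratio of IκBα-fused green versus native red beetle luciferase in OCI-Ly3 cells, 4 h post-doxycycline with compound; red signal alone, scaled from basal (0%) to zero light (-100%), flagged nonspecific or cytotoxic effects.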
# [1] = measured here: control luc red channel unless noted
# [2] = measured here: IkB-luc green channel
# [3] = measured here: control luc red channel
smiles,measurement,setting,value
O=C(c1ccc(Cl)cc1)c1cn(Cc2ccccc2)c2cc3c(cc2c1=O)OCCO3,AC50,[1],"39.8 µM [falling, single point]"
CCc1ccc(CNC(=O)c2ccc(CS(=O)(=O)Cc3cccc(C)c3)o2)cc1,AC50,[1],"25.1 µM [falling, partial curve]"
O=C(NCc1ccc(Cl)cc1)c1ccc2c(c1)N(Cc1ccccc1F)C(=O)c1ccccc1S2=O (configuration not stated),AC50,[1],"0.00631 µM [falling, full curve, poor fit]"
CCC(C(=O)NCCc1ccc(Cl)cc1)n1ccc2cc(S(=O)(=O)N3CCCCC3)ccc21 (configuration not stated),AC50,[1],"10 µM [falling, partial curve]"
COc1ccc(CCNC(=O)C(=O)NCC(c2cccnc2)N2CCN(c3ccccc3)CC2)cc1 (configuration not stated),AC50,[1],"2 µM [rising, partial curve]"
Nc1c(C(=O)Nc2ccccc2)sc2nc(-c3ccco3)ccc12,AC50,[1],"39.8 µM [rising, single point] [measured here: IkB-luc green channel]"
O=C(NC1CCCCC1)c1ccc(N2CCCC2=O)cc1,AC50,[1],"15.8 µM [falling, partial curve]"
COc1ccc(-c2noc(CSc3nnc(-c4ccccc4)n3C)n2)cc1,AC50,[1],"25.1 µM [falling, single point]"
CC(=O)N1CCN(c2ccc(OC[C@H]3CO[C@](Cn4ccnc4)(c4ccc(Cl)cc4Cl)O3)cc2)CC1,AC50,[1],"39.8 µM [falling, partial curve]"
CCCOC(=O)c1ccc(Nc2c(C(=O)OCC)cnc3c(C)cc(Cl)cc23)cc1,AC50,[1],"0.126 µM [rising, full curve, poor fit]"
Cc1oc2c(cc(NS(=O)(=O)c3ccc(F)cc3)c3ccccc32)c1C(=O)OCc1ccccc1,AC50,[1],"25.1 µM [falling, partial curve]"
COc1ccc2c(CC(=O)Nc3ccc(OC)c(NS(=O)(=O)c4ccc(F)cc4)c3)coc2c1,AC50,[1],"10 µM [falling, partial curve]"
Cc1cccc(-n2cnc3cc(C(=O)NC4CCCCCC4)ccc32)c1,AC50,[1],"20 µM [falling, partial curve]"
Cc1cccc(OCC(=O)Nc2ccccc2C(=O)OCc2cc(=O)n3nc(C4CC4)sc3n2)c1,AC50,[1],"12.6 µM [falling, partial curve]"
Cc1ccc(NC(=O)c2ccc(NS(=O)(=O)c3c(C)noc3C)cc2)cc1C,AC50,[1],"7.94 µM [falling, partial curve]"
CCn1cc(C(=O)Nc2ccc(C(C)C)cc2)c2cc(OC)c(OC)cc2c1=O,AC50,[1],"5.01 µM [falling, partial curve]"
CCOC(=O)c1ccc(NC(=O)c2c(NCc3cc(OC)ccc3OC)sc3c2CCC3)cc1,AC50,[2],"6.31 µM [rising, single point]"
same,AC50,[3],"39.8 µM [falling, single point]"
CCc1cnc2c(c1SCCC(C)C)c(=O)n(C)c(=O)n2C,AC50,[1],"12.6 µM [falling, partial curve]"
COc1cccc(-c2nc(SCC(=O)NC3CCCC3)c(-c3ccc(F)cc3)[nH]2)c1,AC50,[1],"25.1 µM [falling, partial curve]"
N#Cc1c(N)c(C#N)c(-c2ccc(O)cc2)c2c1CCCC2,AC50,[1],"31.6 µM [falling, single point]"
COC(=O)c1ccc(Nc2ncnc3c2cnn3-c2ccccc2)cc1,AC50,[1],"0.794 µM [falling, full curve]"
COc1cc(-c2nnc(SCC(=O)Oc3ccc(C)cc3C)o2)cc(OC)c1OC,AC50,[1],"12.6 µM [falling, partial curve]"
Nc1ccccc1S[C@@H](C[N+](=O)[O-])c1ccc2c(c1)OCO2,AC50,[1],"3.98 µM [rising, partial curve] [measured here: IkB-luc green channel]"
CCOC(=O)C1(C)C=C(Nc2cccc(C)c2)C(=O)N1c1ccccc1 (configuration not stated),AC50,[1],"7.94 µM [falling, partial curve]"
Cc1ccc(-n2c(SCc3cn4ccsc4n3)nc3ccccc3c2=O)cc1,AC50,[1],"25.1 µM [falling, single point]"
CCOC(=O)c1cc(-c2ccc(OC)cc2)n(CCC(=O)Nc2ccc(OC)cc2OC)c1C,AC50,[1],"15.8 µM [falling, partial curve]"
CCOc1ccc(C(=O)Nc2ccc3nc(SCC(=O)N(C)c4ccccc4)sc3c2)cc1,AC50,[1],"3.16 µM [falling, full curve]"
COc1ccccc1CNC(=O)c1ccc(Nc2nc3ccccc3n3nnnc23)cc1,AC50,[1],"3.98 µM [falling, full curve]"
CCOc1ccc(/C=C/c2nc3ccccc3n2S(=O)(=O)c2cccc(Cl)c2)cc1,AC50,[1],"10 µM [falling, partial curve]"
CCc1ccccc1-n1c2c(cc(-c3nc(-c4ccc(Cl)cc4)cs3)c1=O)C(=O)CC(C)(C)C2,AC50,[1],"39.8 µM [falling, single point]"
CC(=O)N1c2ccc(S(=O)(=O)NCC3CCC(C(=O)Nc4ccc(F)cc4)CC3)cc2CC1C (configuration not stated),AC50,[1],"39.8 µM [falling, single point]"
COc1ccc(CNC(=O)c2ccc3c(c2)CCN3S(=O)(=O)c2ccc(Cl)cc2)cc1,AC50,[1],"7.94 µM [falling, partial curve]"
Cc1ccc(-c2nn3c(=O)cc(CN4CCN(S(=O)(=O)c5ccc(Cl)cc5)CC4)nc3s2)cc1,AC50,[1],"0.0501 µM [falling, full curve, poor fit]"
CC(NC(=O)C1=Cc2ccccc2OC1)c1ccccc1 (configuration not stated),AC50,[1],"15.8 µM [falling, partial curve]"
COc1ccc(-c2ccc(CCC(=O)O)n2NC(=O)c2cccs2)cc1,AC50,[1],"2 µM [falling, full curve, poor fit]"
CC(C)c1ccc(NC(=O)C(NS(=O)(=O)c2ccc3c(c2)CCC(=O)N3)c2ccccc2)cc1 (configuration not stated),AC50,[1],"31.6 µM [falling, single point]"
CCOCN(C(=O)Cn1c(CC(C)C)nc2ccccc21)c1c(C)cccc1CC,AC50,[1],"25.1 µM [falling, single point]"
CCOc1ccccc1Nc1ncnc2c1c(-c1ccccc1)cn2-c1ccc(OC)cc1,AC50,[1],"12.6 µM [falling, partial curve]"
O=C1c2[nH]nc(-c3ccccc3O)c2C(c2ccc(Cl)cc2)N1CCc1ccccc1 (configuration not stated),AC50,[1],"3.16 µM [falling, full curve]"
CCOC(=O)/C(C#N)=C1/C=C(C)NC(c2ccccc2O)=N1,AC50,[1],"6.31 µM [falling, full curve]"
COc1cc(OC)cc(-c2cc3nc(C)c(CCC(=O)Nc4ccc(F)c(Cl)c4)c(C)n3n2)c1,AC50,[1],"1.58 µM [falling, full curve]"
Cn1ccnc1SCC(=O)Nc1ccc(Oc2ccccc2)cc1,AC50,[1],"15.8 µM [falling, single point]"
Cc1cc(C)cc(NC(=O)c2ncn(-c3ccccc3)n2)c1,AC50,[1],"1.26 µM [falling, full curve]"
CN1CCN(c2ncc3nc(-c4cn(C)c5ccccc45)c(=O)n(Cc4cccs4)c3n2)CC1,AC50,[2],"6.31 µM [falling, single point]"
same,AC50,[3],"6.31 µM [falling, single point]"
COc1ccc2[nH]cc(CCNC(=O)c3cnn(-c4ccccc4Cl)c3C3CCN(C(=O)OC(C)(C)C)CC3)c2c1,AC50,[1],"15.8 µM [falling, partial curve]"
COc1ccc(-c2[nH]c(-c3cccc(OC)c3)nc2SCC(=O)NCc2ccco2)cc1,AC50,[1],"15.8 µM [falling, partial curve]"
CCOc1ccc(C(=O)Nc2ccc(-c3nc4ccccc4s3)c(C)c2)cc1OCC,AC50,[1],"3.16 µM [rising, full curve]"
Cc1cc2nc(-c3cccc(NC(=O)c4ccc(Br)o4)c3C)oc2cc1C,AC50,[1],"3.16 µM [falling, full curve]"
Cc1cccc(N2CCN(C(=O)c3ccc(NC(=O)c4nsc5ccccc45)cc3)CC2)c1C,AC50,[1],"0.2 µM [falling, full curve]"
Cc1nc2c(C(=O)NCCc3ccccc3)c[nH]n2c(=O)c1Cc1ccc(F)cc1Cl,AC50,[1],"6.31 µM [falling, partial curve]"
COc1ccc(CCNC(=O)c2c(C)nn(-c3ccc(F)cc3)c2-n2cccc2)c(OC)c1OC,AC50,[1],"15.8 µM [falling, partial curve]"
COc1ccc(-n2ncc(C(=O)Nc3ccc4c(c3)OCCO4)c2C2CCN(C(=O)OC(C)(C)C)CC2)cc1,AC50,[1],"25.1 µM [falling, partial curve, poor fit]"
O=C(NCCc1ccccc1)c1ccc2c(c1)CCN2S(=O)(=O)c1ccccc1,AC50,[1],"5.01 µM [rising, partial curve]"
CCOC(=O)c1c(NC(=O)C(C)Oc2ccc(Cl)c(C)c2)sc2c1CCCC2 (configuration not stated),AC50,[1],"12.6 µM [falling, partial curve]"
CCc1ccc(NC(=O)CCCn2nc(C)c3c(C)n(-c4ccccc4)nc3c2=O)cc1,AC50,[1],"12.6 µM [falling, partial curve]"
Cc1cccc(N2CCN(C(=O)c3ccc(N4CCCC4=O)cc3)CC2)c1C,AC50,[1],"31.6 µM [falling, partial curve]"
O=c1[nH]c(CS(=O)(=O)c2ccccc2)nc2ccccc12,AC50,[1],"10 µM [falling, partial curve]"
CCCSc1nnc2n(-c3ccc(OC)cc3)c(=O)c3c4c(sc3n12)COC(C(C)C)C4 (configuration not stated),AC50,[1],"3.98 µM [falling, full curve]"
CCOCCCNc1ncnc2c1[nH]c1ccccc12,AC50,[1],"20 µM [falling, partial curve]"
CCOc1ccc(CNC(=O)C2CCN(Cc3cc4ccccc4n3Cc3ccccc3C)CC2)cc1,AC50,[1],"3.98 µM [falling, partial curve, poor fit]"

# Fetched one by one from the list above (5):
smiles,measurement,setting,value
Cc1ccc(NC(=O)c2ccc(NS(=O)(=O)c3c(C)noc3C)cc2)cc1C,AC50,[1],"7.94 µM [falling, partial curve]"
CC(C)c1ccc(NC(=O)C(NS(=O)(=O)c2ccc3c(c2)CCC(=O)N3)c2ccccc2)cc1 (configuration not stated),AC50,[1],"31.6 µM [falling, single point]"
Cc1cccc(OCC(=O)Nc2ccccc2C(=O)OCc2cc(=O)n3nc(C4CC4)sc3n2)c1,AC50,[1],"12.6 µM [falling, partial curve]"
CCOC(=O)c1ccc(NC(=O)c2c(NCc3cc(OC)ccc3OC)sc3c2CCC3)cc1,AC50,[2],"6.31 µM [rising, single point]"
COc1ccc2[nH]cc(CCNC(=O)c3cnn(-c4ccccc4Cl)c3C3CCN(C(=O)OC(C)(C)C)CC3)c2c1,AC50,[1],"15.8 µM [falling, partial curve]"
